Library screening results

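Viability assay of Plasmodium falciparum sporozoites; the read-out is not stated. The concentration is filed as 10 mM, unlikely as a test dose, so the dose is not known. Direction is inferred from retests: higher values go with lower viability. Strong results were mostly tested again. Size under these conditions: about 34,000 compounds, about 280 of them at 50% or above in at least one test.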

Values are the deposited “Percent Effect”, in %. The record does not define 0% and 100%; most values in the screen are far below 50% and negative numbers occur (in some assays of this library far below -100). This is an unselected part of the compounds tested. Two or more numbers in one place are separate tests of the same structure; such repeats can differ widely.

compound | effect
Cc1c(C(=O)NCC2CCS(=O)(=O)C2)cnn1-c1ccccc1 (stereo not given) | 13.86
CC(C)c1nnc(NC(=O)C2CSCN2C(=O)C2CCC2)s1 (stereo not given) | 4.035
[H][C@]12CCC(=O)N(c3cccnc3)[C@@]1([H])CCN2C(=O)c1cnccn1 | 9.115
CN(C)CCN(Cc1ccc(Cl)cc1)C(=O)c1ccn(C)c(=O)c1 | -11.51
CCn1ccnc1CNCC1CCCN1c1cc(NC)ncn1 (stereo not given) | -1.225
Cc1nccc(CN2Cc3nccn3CC2c2ccccc2)n1 (stereo not given) | -2.246
Cc1ccc(C(=O)N2CCN(Cc3ccsc3)CC2)n1C | -4.902
CC(NC(=O)NCCn1ccnc1)c1ccc2c(c1)CCC(=O)N2 (stereo not given) | 5.948
Cc1cnn(CC2CCCCN2C(=O)CC(F)(F)F)c1 (stereo not given) | -5.047
Cn1nc(C(=O)N2CCOCC2)c2c1CN(CC1CCC1)C2 | 6.726
CC(c1ccccc1)n1c(SCC(=O)O)nnc1-c1ccccc1Cl (stereo not given) | 1.12
Cc1c(F)cccc1NC(=O)N(C(C)CS(C)(=O)=O)C1CC1 (stereo not given) | -12.34
C[C@]1(O)CN(Cc2ncccc2F)CC[C@@H]1Oc1ccccc1 | 4.394
Cc1nnsc1C(=O)NCc1cccnc1N(C)C | -3.7
CC(C)(C)c1n[nH]c(C2CN(C(=O)c3ccsc3)CCO2)n1 (stereo not given) | 11.27
CN1CCN(c2ncnc3c2CCN(S(=O)(=O)C2CC2)CC3)CC1.O=C(O)C(F)(F)F | 2.532
CN(Cc1ccccn1)C(=O)C(c1ccccc1)N1CCSCC1 (stereo not given) | -21.08
COc1cc2nc(C)n(CC(=O)NCCCN(C)C)c(=O)c2cc1OC | -3.289
Cc1cn[nH]c1C1CCCCN1C(=O)CCc1ccc(F)cc1 (stereo not given) | -2.678
CC(c1ccc(S(C)(=O)=O)cc1)N(C)C(=O)c1ccccc1I (stereo not given) | 1.93
CNC(=O)CCc1cc(C2CCCCN2C(C)C)nc(C)n1 (stereo not given) | 18.71
Cn1cc(-c2nc(CN3CCN(c4nccs4)CC3)cs2)cn1 | 4.932
CNc1cncc(C2CCN(C(=O)c3coc(C)n3)CC2)n1 | 2.727
O=C(O)C(F)(F)F.[H][C@@]12CCN(c3ccncn3)C[C@@]1([H])O[C@@H](C(=O)NCCOC)C2 | -1.012
COCC(=O)Nc1ccc2c(c1)CN(C(=O)c1ccco1)CC2 | 7.073
O=C(O)C(F)(F)F.[H][C@@]12CCN(c3cccnc3)C[C@]1([H])CN(C(=O)c1ccc(F)cc1)C2 | 6.734
O=C1CCNc2ncc(-c3ccc(Cl)cc3)cc2CN1C1CC1 | -31.61
CCc1n[nH]c(C2CN(C(=O)c3cc(C4CC4)on3)CCO2)n1 (stereo not given) | -7.61
Cc1noc(C)c1CN(C)CC1CCCN1c1cccnn1 (stereo not given) | -4.162
Cn1ccc2cc(CC3COCCN(C(=O)c4ccccn4)C3)ccc21 (stereo not given) | 7.22
Cc1ncc(CN2CCC(N(C)Cc3noc(C4CC4)n3)C2)s1 (stereo not given) | 4.44
Cc1ccccc1S(=O)(=O)NC(=O)CSc1ccc2c(c1)OCCO2 | -5.823
Cc1nc(CN2CCC(CNC(=O)Nc3ccccn3)CC2)oc1C | -2.999
CC(C)CN1CCC(c2nnc(CN3CCCC3)n2C2CC2)CC1 | 5.325
CCc1nnc2n1CCN(Cc1csc(-c3ccsc3)n1)C2 | -3.583
CN(C)C(=O)CN1CCC2(COCc3cnc(-c4ccccc4)nc32)C1 (stereo not given) | 11.59
Cc1nccn1C1CCCN(C(=O)c2ccc3nnc(C)n3c2)C1 (stereo not given) | 0.03453
CCc1nc(COc2ccc(OCc3cnn(C)c3)cc2)no1 | -21.09 and -24.69 and 79.88
Cl.Cl.Cn1cnc2c(N3CCCC3)nc(C3CCNCC3)cc21 | 2.273
Cc1cnn(CC2CCCN2C(=O)CCc2cscn2)c1 (stereo not given) | -6.72
Cc1cccc(CN2CCCC2c2cncc(Nc3nncs3)n2)c1 (stereo not given) | 2.302
CC(C)c1cccc(CSc2nnc(CN3CCCC3=O)o2)n1 | -12.45
Cc1ccc(C(=O)NCCCS(=O)(=O)c2ccccc2)c(=O)[nH]1 | 0.355

For reference, 2 entries once more:

| compound | effect |
|---|---|
| `Cc1c(C(=O)NCC2CCS(=O)(=O)C2)cnn1-c1ccccc1` (stereo not given) | 13.86 |
| `CC(C)(C)c1n[nH]c(C2CN(C(=O)c3ccsc3)CCO2)n1` (stereo not given) | 11.27 |

The values are deposited in ChEMBL (CHEMBL3988442, “University of Dundee, Small-Polar-MMV Screening Library” (2021)).